Where a name gives a salt, the structure may show the parent alone. Whole data set: some 1,000 compounds, median “cFRET/donor change relative to DMSO, normalised to beta-lapachone positive control (supercomplex I-IV assembly)” near 0.18, cut for the lowest 2% near -1. The list shows a part of the results.

The test system of this assay is C2C12 (NDUFB8-AcGFP / COX8A-DsRed-Monomer FRET reporter). Nature of the assay: cFRET/donor change relative to DMSO, normalised to beta-lapachone positive control (supercomplex I-IV assembly) (fraction of beta-lapachone effect); higher = more respiratory supercomplex assembly. As to conditions: 40 µM; 24 h. As for the experimental part: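 Cells were treated with 40 uM compound for 24 h and imaged on an IN Cell Analyzer 6000. Corrected FRET was divided by donor signal (cFRET/donor) and measured in two replicate experiments. The score is (mean cFRET/donor of compound - mean DMSO) / (mean beta-lapachone 40 uM - mean DMSO). Compounds flagged for prominent cell death, abnormal morphology or decreased cell number were excluded.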
With `CCN1/C(=C/C(C)=O)Sc2ccc(OC)cc21`, the cFRET/donor change was found to be 1.45.

Turning to `Cc1nc(N=Nc2ccc(S(=O)(=O)O)cc2S(=O)(=O)O)c(COP(=O)(O)O)c(C=O)c1O`, the cFRET/donor change was found to be 0.328.

`CCCCC[C@H](CC(=O)NO)C(=O)N[C@H](C(=O)N1CCC[C@H]1CO)C(C)C` [Actinonin] yielded a cFRET/donor change of 0.125.

Turning to `CC(=O)OC(C)C[N+](C)(C)C` (stereo not drawn) [Acetyl-beta-methylcholine chloride], the cFRET/donor change was determined as 0.0536.

For the compound `C=CCc1ccccc1OCC(O)CNC(C)C` (stereo unspecified) [Alprenolol hydrochloride], the cFRET/donor change turned out to be 0.0171.

`COc1cc(CC(=O)O)ccc1O` [4-Hydroxy-3-methoxyphenylacetic acid]: the cFRET/donor change was -0.134.

Compound `CCOc1ncc(S(=O)(=O)N2CCN(CC)CC2)cc1-c1nc(=O)c2nn(CCOC)c(CC)c2[nH]1` [Gisadenafil besylate salt] showed a cFRET/donor change of 0.0753.

In turn, `CCNc1nc2c(ncn2[C@H]2C[C@H](O)[C@@H](CO)O2)c(=O)[nH]1` [N2-Ethyl-2'-deoxyguanosine] gave a cFRET/donor change of 0.301.

In turn, `NC(=O)NO` [Hydroxyurea] returned a cFRET/donor change of 0.118.

Compound `CC[C@]1(O)C[C@@H]2CN(CCc3c([nH]c4ccccc34)[C@@](C(=O)OC)(c3cc4c(cc3OC)N(C)[C@H]3[C@@](O)(C(=O)OC)[C@H](OC(C)=O)[C@]5(CC)C=CCN6CC[C@]43[C@@H]65)C2)C1` [Vinblastine sulfate salt] registered a cFRET/donor change of 0.973.

In turn, `CCCCC#Cc1nc(NC)c2ncn([C@@H]3O[C@H](CO)[C@@H](O)[C@H]3O)c2n1` displayed a cFRET/donor change of 0.242.

`O=C(Nc1ccc2[nH]ncc2c1)C1CCC1` [Rhodblock 6] returned a cFRET/donor change of 0.156.

Compound `Nc1nccc2c1ncn2[C@@H]1O[C@H](CO)[C@@H](O)[C@H]1O` [3-deazaadenosine] displayed a cFRET/donor change of 0.17.

Consider `CC(C)(Oc1ccc(C2CC2(Cl)Cl)cc1)C(=O)O` (stereo unspecified) [Ciprofibrate], for which the cFRET/donor change was -0.0424.

`CNC1(C)C2CCC(C2)C1(C)C` (stereo unspecified) [Mecamylamine hydrochloride]: the cFRET/donor change stood at 0.164.

With `COc1cccc(OC)c1-c1cc(C(=O)NC2(C(=O)O)C3CC4CC(C3)CC2C4)nn1-c1ccc(C(=O)N(C)CCCN(C)C)cc1C(C)C` (stereo unspecified), the cFRET/donor change turned out to be 0.153.

With `COc1ccc(CCN(C)CCCC(C#N)(c2ccc(OC)c(OC)c2)C(C)C)cc1OC` (racemic) [(±)-Verapamil hydrochloride], the cFRET/donor change came to 0.448.

Compound `CC(C)N(CCC(=O)c1ccc2ccccc2c1)Cc1ccccc1` gave a cFRET/donor change of 0.232.

For the compound `CCOC(=O)c1ccc(C#Cc2ccc3c(c2)C(C)(C)CCS3)nc1` [Tazarotene], the cFRET/donor change is 0.454.

`N[C@@H](CCC(=O)N[C@@H](CSN=O)C(=O)NCC(=O)O)C(=O)O` [S-Nitrosoglutathione]: the cFRET/donor change was -0.171.

`CC(CCc1ccc(O)cc1)NCCc1ccc(O)c(O)c1` (stereo unspecified) [Dobutamine hydrochloride] yielded a cFRET/donor change of 1.02.

These data come from the supplement of paper PMC9877034.
